Measured values from PubChem BioAssay AID720591 (Broad Institute, 2013).
About 60 (5%) of roughly 1,200 compounds were called active. Roughly 1% stayed inconclusive and do not appear here.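 How the source made its calls: active means Decreasing signal and fitted IC50 at most twice the top valid tested dose; inconclusive means Bad fit or a level curve showing 30 to 70% inhibition; inactive means the rest.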 This is one part of the list. Potency and affinity values are given separately.

Chains of the proteins cited; added tags and fusions are not shown. Lines headed by an entry give the natural chain unless they say otherwise; changes in a name come on top.
UniProt Q9NXA8: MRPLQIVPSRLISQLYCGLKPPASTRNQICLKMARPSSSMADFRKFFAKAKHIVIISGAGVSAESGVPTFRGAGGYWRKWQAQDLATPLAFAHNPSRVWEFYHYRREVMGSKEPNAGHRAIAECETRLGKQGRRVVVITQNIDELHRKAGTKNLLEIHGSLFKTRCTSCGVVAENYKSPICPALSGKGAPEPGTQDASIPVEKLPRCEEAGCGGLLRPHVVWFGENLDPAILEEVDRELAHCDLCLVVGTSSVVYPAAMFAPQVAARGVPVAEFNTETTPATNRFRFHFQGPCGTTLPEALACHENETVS

Each compound was assayed against NAD-dependent protein deacylase sirtuin-5, mitochondrial (Homo sapiens) (UniProt Q9NXA8) (assay: SIRT5 desuccinylase inhibitors, dose response, biochemical, fluorescence imaging, cherry-pick, set 5 (AID 720591;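 further: 0% = median of neutral control wells and -100% = median of positive control wells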)). Conditions: Purified SirT5, succinyl-peptide AMC, trypsin-coupled fluorescence; at 15 µM (top of the series) unless noted.

Structure (SMILES) | activity change, negative = inhibition
CCCCCCN1C[C@@H](n2cc(C3CC3)nn2)[C@H](O)C[C@@H]1c1ccc(OC)cc1 | inactive: -37.2%
CCCNC(=O)CN(c1cccc(F)c1)S(C)(=O)=O | inactive: -1.82%
Nn1c(C2CCC2)nc2cc(Cl)ccc2c1=O | inactive: -25.2%
Cc1ccc(NC(=O)Cn2sc3ccccc3c2=O)cc1 | inactive: -30.7%
O=C(NCCN1CCOCC1)C1CCC(CNS(=O)(=O)c2ccc(Cl)cc2)CC1 (centres undefined) | inactive: -17.8%
Cn1c(N)c(C(=O)CSc2nnc(C3CC3)n2N)c(=O)n(C)c1=O | inactive: -22.5%
O=C(Nc1ccc(N2CCN(C(=O)c3ccco3)CC2)cc1)c1ccccc1 | inactive: 15.6%
Cc1ccc(S(=O)(=O)N2C[C@H]3[C@H]4C(=O)N(c5ccccc5)C(=O)[C@H]4C[C@H](OC(=O)NCc4ccccc4)[C@@]3(O)C2)cc1 | inactive: -30.1%
O=S(=O)(Cc1ccccc1)c1nc2ccccc2n1Cc1ccccn1 | inactive: -27.5%
O=C1N[C@@H](Cc2ccccc2)[C@@H](c2ccco2)O1 | inactive: 4.45%
COc1ccccc1N1CCN(c2ncnc3sc(C(=O)NCC4CCCO4)c(C)c23)CC1 (centres undefined) | inactive: 3.81%
Cc1cccc(N(C(=O)c2snc(C(N)=O)c2N)C(C(=O)NCC2CCCO2)c2ccc3ncccc3c2)c1 (centres undefined) | inactive: 4.66%
Cc1cc(OCC(O)CNC(C)(C)C)ccc1Cl (centres undefined) | inactive: 3.37%
Cc1ccc2cc(CN(Cc3ccc(F)cc3)Cc3nnnn3C3CCCC3)c(=O)[nH]c2c1 | inactive: 6.37%
CN(CC(=O)Nc1ccc(S(N)(=O)=O)cc1)Cc1ccccc1F | inactive: 18.9%
CSc1nc(N)nc2c1ncn2CC(=O)NCc1ccc2c(c1)OCO2 | inactive: -33.5%
CCOC(=O)C1CCN(C(=O)Cn2cc(C(=O)OC)c3ccccc32)CC1 | inactive: -21.2%
Cc1nn(CC(=O)NCCCN2CCC(Cc3ccccc3)CC2)c(=O)c2cc(-c3ccccc3)nn12 | inactive: 4.5%
CC(C)(C)S(=O)N1Cc2cc(=O)n(Cc3ccccc3)c(CCO)c2[C@H]1CCO (some centres undefined) | inactive: 8.68%
COc1ccccc1NC(=O)CN1CCN(C(=O)C2CCCO2)CC1 (centres undefined) | inactive: 8.13%
O=C(O)CCCC(=O)Nc1ccccc1C(=O)N1CCOCC1 | inactive: -26.4%

Two entries from above, in markdown.

| Structure (SMILES) | activity change, negative = inhibition |
| --- | --- |
| Cc1ccc(NC(=O)Cn2sc3ccccc3c2=O)cc1 | inactive: -30.7% |
| Cc1cccc(N(C(=O)c2snc(C(N)=O)c2N)C(C(=O)NCC2CCCO2)c2ccc3ncccc3c2)c1 (centres undefined) | inactive: 4.66% |

Copied from the list.
activity change, negative = inhibition, Nn1c(C2CCC2)nc2cc(Cl)ccc2c1=O is entered as inactive: -25.2%
activity change, negative = inhibition, O=C(O)CCCC(=O)Nc1ccccc1C(=O)N1CCOCC1 is entered as inactive: -26.4%

(listing goes on)

Structure (SMILES) | activity change, negative = inhibition
CC(C)c1ccc(NC2CCCN(C(=O)CC3CCCC3)C2)cc1 (centres undefined) | inactive: 20.8%
CN1CCN(c2nc3c(c(=O)n(C)c(=O)n3C)n2Cc2ccccc2)CC1 | inactive: 10.6%
CCC(C)[C@H]1CN=C(N)N1CCCc1cc(OC)c(OC)c(OC)c1 (some centres undefined) | inactive: -23.2%
Cc1ccc(CN2CCN(Cc3cnn(-c4ccc(Cl)cc4)c3)CC2CCO)o1 (centres undefined) | inactive: 18.4%
Cc1ccc(S(=O)(=O)NC(=O)Nc2ccc(Cl)cn2)cc1 | inactive: -14.3%
O=C(Cn1cnc2c(NCc3ccccc3)ncnc21)NCc1ccc2c(c1)OCO2 | inactive: -13%
Cc1ccc(C(C(=O)NC2CCCC2)N(Cc2ccco2)C(=O)CCC(=O)Nc2cc(C)on2)cc1 (centres undefined) | inactive: -17%
Cc1occc1C(=O)N(C)CC1CCCN(CCc2ccccc2F)C1 (centres undefined) | inactive: -31.8%
C[C@@H](CSc1ccc(Br)cc1)CN1CC[C@H](NC(=O)OCc2ccccc2)CCC1=O | inactive: 21.5%
Cn1c(=O)c2c(nc(OCCc3ccccc3)n2C)n(C)c1=O | inactive: -26.2%
COc1ccc(CN(C(=O)Cn2nnc(-c3ccc(C)o3)n2)C(C(=O)NCC2CCCO2)c2ccco2)cc1 (centres undefined) | inactive: -16.3%
CC(=O)N1CCN(c2ccccc2NC(=O)c2ccc(Br)o2)CC1 | inactive: 23.7%
COc1ccc(C(C)C)cc1S(=O)(=O)n1ccnc1C | inactive: -21.8%
Cc1cc(NC(=O)CCC(=O)N(Cc2ccco2)C(C(=O)NC2CCCC2)c2ccccc2C)no1 (centres undefined) | inactive: -14.6%
COc1ccc(CC(=O)Nc2cc(S(=O)(=O)Nc3ccc(OC)cc3)ccc2OC)cc1 | inactive: -31.7%
CCOc1cccc(=O)c2c(C)n(-c3ccc(C(=O)O)cc3)c(C)c12 | inactive: -31.8%
Cc1cc(-c2nc(C)c(-c3nnc(SCC(=O)Nc4ccc(Cl)cc4)n3C)s2)no1 | inactive: 18.5%
Cn1c(SCc2ccc(C#N)cc2)nnc1-c1ccccc1 | inactive: -13.4%
CCOc1cc(C)ccc1OCc1nnc(SCC(=O)Nc2cccc(C(=O)O)c2)n1-c1ccccc1 | inactive: -14.2%
Cc1oc(-c2ccc(Cl)cc2)nc1CN1CCCC(C(=O)N2CCOCC2)C1 (centres undefined) | inactive: -27.5%
COCCCNc1nc2cc(OC)c(OC)cc2c2nc(-c3ccccc3)nn12 | inactive: 4.25%

Structure (SMILES) | activity change, negative = inhibition
COc1cc2c(cc1OC)C(c1c(Cl)cccc1Cl)NC(=O)C2 (centres undefined) | inactive: -24.4%
Cc1ccc(S(=O)(=O)N2C[C@@H](C)[C@]3(C2)[C@H](O)[C@H](OC(=O)NCc2ccco2)C[C@H]2C(=O)N(c4ccccc4)C(=O)[C@H]23)cc1 | inactive: -12.3%
C[C@@H]1CN([C@H](C)CO)C(=O)c2cc(NC(=O)Cc3ccccc3)ccc2O[C@H]1CN(C)Cc1ccc(Oc2ccccc2)cc1 | inactive: -18.2%
COc1ncnc2c1ncn2CCCN1CCN(c2ccccn2)CC1 | inactive: -21.8%
C[C@H](CO)N1C[C@H](C)[C@@H](CN(C)CC2CCCCC2)Oc2c(NS(=O)(=O)c3ccc(F)cc3)cccc2C1=O | inactive: 5.13%
CC1(C(=O)Nc2cccc(C(F)(F)F)c2)Cc2c(-c3cccc(C(F)(F)F)c3)ccnc2O1 (centres undefined) | inactive: -24%
C[C@H](CO)N1C[C@H](C)[C@@H](CN(C)S(=O)(=O)c2cccs2)Oc2ccc(NC(=O)CCC(F)(F)F)cc2C1=O | inactive: -22%
COc1ccccc1-c1cc(C(=O)NC(C)C)no1 | inactive: -1.51%
COc1cc(OC)c(NS(=O)(=O)c2cc(C(=O)OCC(=O)NCC3CCCO3)ccc2OC)cc1Cl (centres undefined) | inactive: -26.7%
CCc1ccc(N(C(=O)CCC(=O)Nc2cc(C)on2)C(C(=O)NC2CCCC2)c2ccco2)cc1 (centres undefined) | inactive: 8.88%
COc1cc2cc(C#N)c(SCC(=O)Nc3cc(C)on3)nc2cc1OC | inactive: -3.85%
CC(=O)c1cccc(NC(=O)CCS(=O)(=O)c2ccc(Br)s2)c1 | inactive: -17.1%
C[C@@H]1CN([C@H](C)CO)C(=O)CCCn2nncc2CO[C@H]1CN(C)C(=O)Nc1cccc2ccccc12 | inactive: 11.2%
CC1CCCN(C(=O)COC(=O)C2CCN(S(=O)(=O)c3c(Cl)cccc3Cl)CC2)C1 (centres undefined) | inactive: 15.2%
O=C(Nc1ccc(F)cc1)C1CC(=O)n2ncnc2N1 (centres undefined) | inactive: -19.7%
O=C(O)CCC(=O)Nc1ccc(-c2nc3ccc(C(=O)c4ccccc4)cc3[nH]2)cc1 | inactive: -28.6%
CC(=O)Nc1ccc(S(=O)(=O)Nc2nc3ccccc3nc2Nc2ccc(C(=O)O)c(O)c2)cc1 | inactive: -36%
Cc1ccccc1C(=O)c1cccn1CC(=O)NCc1ccccc1Cl | inactive: -6.51%
COCCCNC(=O)CC1C(=O)N(Cc2ccccc2)C(C)c2nc3ccccc3n21 (centres undefined) | inactive: -24.6%
CN(C(=O)c1ccc2c(=O)n3c(nc2c1)CCCCC3)c1ccccc1F | inactive: -21.9%
CCN(CC)C(=O)C1CCCN(Cc2ccc3ccccc3c2)C1 (centres undefined) | inactive: -10.8%

Structure (SMILES) | activity change, negative = inhibition
CCNc1nc(C#N)nc2c1ncn2-c1cc(F)cc(F)c1 | inactive: 12.5%
CC(C)NC(=O)N(C)C[C@@H]1OCc2cnnn2CCCC(=O)N([C@@H](C)CO)C[C@H]1C | inactive: 10.8%
COc1cccc(Nc2nc(CN3CCOCC3)nc3sc4c(c23)CCCC4)c1 | inactive: 2.63%
O=C(Nc1ccc(N2CCCC2)c(Cl)c1)c1cccs1 | inactive: 7.47%
CN(Cc1ccccc1F)C(=O)c1ccc(NS(=O)(=O)c2ccc3[nH]c(=O)[nH]c3c2)cc1 | inactive: -20.6%
C[C@@H]1CN([C@@H](C)CO)C(=O)c2cc(/C=C/c3ccccc3)cnc2O[C@@H]1CN(C)S(=O)(=O)c1ccc(F)cc1 | inactive: 24.1%
CS(=O)(=O)N(CC(=O)N1CCCC1)c1ccc(F)cc1 | inactive: 6.53%
Cc1ccc(-n2cc(CN3CCN(Cc4nccn4C)CC3)c(-c3ccc(F)cc3)n2)cc1 | inactive: 14.7%
Cc1ccc(NC(=O)COc2ccc(Br)cc2CO)cc1S(=O)(=O)N1CCOCC1 | inactive: 3.1%
CC1CC(C)CN(S(=O)(=O)c2ccc3c(c2)oc(=O)n3CC(=O)NCc2cccnc2)C1 (centres undefined) | inactive: -23.1%
CCCCCCc1ccc(OCC(=O)OC)cc1OCC(=O)OC | inactive: 30.7%
CN(C)c1nc2c(c(=O)n(C)c(=O)n2C)n1Cc1ccccc1 | inactive: 1.34%
O=C(O)c1ccc2c(c1)ncn2C1CCCC1 | inactive: -11.2%
CS(=O)(=O)N(CC(=O)N1CCCCCC1)c1cccc(F)c1 | inactive: -22.2%
CCCCOc1ccc(C(=O)Nc2ccc(CN3CCOCC3)cc2)cc1 | inactive: -16.6%
N#CCCN(C(=O)COC(=O)c1ccc2c(c1)NC(=O)CS2)c1ccc2c(c1)OCCO2 | inactive: -30.3%
Cc1ccc(S(=O)(=O)NC(=O)Nc2cccc(C)n2)cc1 | inactive: -0.691%
Cc1cc(S(=O)(=O)N2CCN=C2c2ccccc2)c(C)cc1Cl | inactive: 9.09%
COc1cc(C(C)=O)ccc1OCc1cn(CC(=O)c2ccc(O)cc2)nn1 | inactive: 6.41%
CCOC(=O)C1=CN(Cc2cccc(Br)c2)S(=O)(=O)N(C)C1C (centres undefined) | inactive: 34.1%
COc1ccc(-c2ocnc2C(=O)Nc2ccc3c(c2)CCC3)cc1 | inactive: -32.4%
